Laboratory results: PubChem BioAssay AID1224826 (NIAID, 2016)
Here is an unselected part of about 17,000 reagents tested. About 1,110 of them (6.6%) count as active. 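Active means lowered or raised reporter signal; replicate intensities are raw and not normalised per plate.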 Unmarked entries are inactive.

Purpose: 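Regulators of Tlr4 signalling leading to Tnf-alpha expression in macrophages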 (primary screen)
Cell system: RAW264.7 G9 macrophages from mouse bearing reporters for p65 (GFP) and the Tnf promoter (mCherry)
Reagents: siRNA pool against mouse genes, 100 nM
Duration: 16 h of LPS stimulation, after 2 days of siRNA transfection
Treatment: bacterial lipopolysaccharide (Salmonella minnesota R595), 10 ng/ml
Measured: 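Nuclear mCherry signal of the Tnf promoter reporter measured by imaging after background removal, scaled to each plate median and turned into robust z-scores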
Scale: Tnf reporter robust z-score: higher = stronger Tnf promoter reporter signal after LPS; Tnf reporter intensity: higher = stronger Tnf promoter reporter signal
Rule for the call: 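a well counts as active at a score of -1.3 or below (Tlr4 knock-down control median) or above 3 (raised signal); controls and wells holding fewer than 50 cells are excluded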
Meaning of the calls: active = Tnf reporter clearly lowered or raised; inactive = no clear change in Tnf reporter

| gene knocked down | PubChem SID | Tnf reporter robust z-score | fewer than 50 cells in well | Tnf reporter intensity, replicate 1 | Tnf reporter intensity, replicate 2 |
| --- | --- | --- | --- | --- | --- |
| Gimap6 | SID315478947 | -0.5 | enough cells in well | 168 | 118 |
| Pbld1 | SID315473517 | -0.47 | enough cells in well | 239 | 51.5 |
| Dnmt3l | SID315471238 | -1.01 | enough cells in well | 127 | 82 |
| Adat1 | SID315470782 | -0.2 | enough cells in well | 234 | 134 |
| Vmn1r193 | SID315477334 | 1.99 | enough cells in well | 163 | 179 |
| Papln | SID315477198 | -0.99 | enough cells in well | 119 | 68.5 |
| Birc3 | SID315465455 | 1.38 | enough cells in well | 170 | 296 |
| Egfl7 | SID315481698 | -0.24 | enough cells in well | 192 | 92.2 |
| Vmn2r26 | SID315471610 | -1.6 (active) | enough cells in well | 57.1 | 45.9 |
| Actr1a | SID315471153 | -0.13 | enough cells in well | 156 | 168 |
| Polr3gl | SID315473921 | – | fewer than 50 cells per well; well left out of calls | 192 | 73.2 |
| Ptk2b | SID315468785 | -0.32 | enough cells in well | 173 | 145 |
| Tent2 | SID315476244 | – | fewer than 50 cells per well; well left out of calls | 78.3 | 68 |
| Nav2 | SID315475558 | -0.17 | enough cells in well | 197 | 110 |
| Morc2a | SID315474997 | 0.78 | enough cells in well | 142 | 174 |
| Stk31 | SID315475471 | 0.76 | enough cells in well | 261 | 133 |
| Slc30a6 | SID315477632 | – | fewer than 50 cells per well; well left out of calls | 69.6 | 43.7 |
| Chkb | SID315465954 | -1.47 (active) | enough cells in well | 88.4 | 88.4 |
| A830039N20Rik | SID315480792 | -0.68 | enough cells in well | 142 | 107 |
| Prl7c1 | SID315473071 | 0.21 | enough cells in well | 155 | 123 |
| Cdhr1 | SID315477190 | -0.37 | enough cells in well | 124 | 121 |
| Mapkbp1 | SID315470372 | 0.19 | enough cells in well | 226 | 136 |
| H6pd | SID315476213 | 2.41 | enough cells in well | 445 | 298 |
| Speer2 | SID315478337 | 0.93 | enough cells in well | 210 | 122 |
| Ambra1 | SID315478627 | -0.84 | enough cells in well | 146 | 112 |
| Sult2a2 | SID315469496 | -0.62 | enough cells in well | 236 | 157 |
| Malt1 | SID315479500 | -0.45 | enough cells in well | 125 | 176 |
| Vmn1r42 | SID315476976 | – | fewer than 50 cells per well; well left out of calls | 43.7 | 45.2 |
| Slc6a7 | SID315479498 | -1.5 (active) | enough cells in well | 48.5 | 51.5 |
| Cep57l1 | SID315476369 | – | fewer than 50 cells per well; well left out of calls | 124 | 28.9 |
| Ttn | SID315469866 | – | fewer than 50 cells per well; well left out of calls | 261 | 162 |
| Ttn | SID315469867 | – | fewer than 50 cells per well; well left out of calls | 71.6 | 18.3 |
| Clpb | SID315469264 | 1.61 | enough cells in well | 154 | 159 |
| Pggt1b | SID315478420 | -0.13 | enough cells in well | 219 | 197 |
| Prp2 | SID315475807 | 1.5 | enough cells in well | 201 | 189 |
| Clrn3 | SID315477714 | -0.73 | enough cells in well | 136 | 161 |
| Cds1 | SID315475012 | 0.76 | enough cells in well | 193 | 241 |
| Gba1 | SID315466842 | 0.58 | enough cells in well | 345 | 246 |
| Foxj1 | SID315467193 | 0.47 | enough cells in well | 359 | 217 |
| Coq5 | SID315470936 | 2.88 | enough cells in well | 311 | 367 |
| Ear2 | SID315466418 | -0.25 | enough cells in well | 155 | 115 |
| Acy3 | SID315474272 | 0.96 | enough cells in well | 340 | 104 |
| Smad3 | SID315467801 | 1.11 | enough cells in well | 360 | 315 |
| Nr2e1 | SID315469747 | -0.15 | enough cells in well | 236 | 167 |
| Abcg3 | SID315470614 | -0.84 | enough cells in well | 149 | 132 |
| Mea1 | SID315467888 | 1.31 | enough cells in well | 260 | 222 |
| Hapln4 | SID315481615 | 1.27 | enough cells in well | 374 | 218 |
| C730014E05Rik | SID315481206 | 0.72 | enough cells in well | 190 | 239 |
| Mast4 | SID315481473 | 0.06 | enough cells in well | 155 | 168 |
| Ankef1 | SID315481049 | -0.06 | enough cells in well | 128 | 207 |
| Hdhd3 | SID315474620 | 0.24 | enough cells in well | 162 | 179 |
| Scd1 | SID315469106 | -1.31 (active) | enough cells in well | 179 | 111 |
| Tmem215 | SID315481327 | 2.31 | enough cells in well | 298 | 280 |
| Baiap2 | SID315476692 | -0.11 | enough cells in well | 141 | 154 |
| B9d2 | SID315479035 | 0.29 | enough cells in well | 230 | 223 |
| Vcp | SID315480861 | – | fewer than 50 cells per well; well left out of calls | 0 | 146 |
| Epha8 | SID315466527 | 2 | enough cells in well | 294 | 293 |
| Rnf181 | SID315472484 | 0.06 | enough cells in well | 233 | 78.4 |

Targets above whose gene name begins with N or n:
| gene knocked down | PubChem SID | Tnf reporter robust z-score | fewer than 50 cells in well | Tnf reporter intensity, replicate 1 | Tnf reporter intensity, replicate 2 |
| --- | --- | --- | --- | --- | --- |
| Nav2 | SID315475558 | -0.17 | enough cells in well | 197 | 110 |
| Nr2e1 | SID315469747 | -0.15 | enough cells in well | 236 | 167 |
